# According to the supplement of paper PMC10849652:
# Protein sequences, listed by entry. Tags and fused reporters are not part of them. Lines headed by an entry give the natural chain unless they say otherwise; changes in a name come on top.
# UniProt Q96JI7: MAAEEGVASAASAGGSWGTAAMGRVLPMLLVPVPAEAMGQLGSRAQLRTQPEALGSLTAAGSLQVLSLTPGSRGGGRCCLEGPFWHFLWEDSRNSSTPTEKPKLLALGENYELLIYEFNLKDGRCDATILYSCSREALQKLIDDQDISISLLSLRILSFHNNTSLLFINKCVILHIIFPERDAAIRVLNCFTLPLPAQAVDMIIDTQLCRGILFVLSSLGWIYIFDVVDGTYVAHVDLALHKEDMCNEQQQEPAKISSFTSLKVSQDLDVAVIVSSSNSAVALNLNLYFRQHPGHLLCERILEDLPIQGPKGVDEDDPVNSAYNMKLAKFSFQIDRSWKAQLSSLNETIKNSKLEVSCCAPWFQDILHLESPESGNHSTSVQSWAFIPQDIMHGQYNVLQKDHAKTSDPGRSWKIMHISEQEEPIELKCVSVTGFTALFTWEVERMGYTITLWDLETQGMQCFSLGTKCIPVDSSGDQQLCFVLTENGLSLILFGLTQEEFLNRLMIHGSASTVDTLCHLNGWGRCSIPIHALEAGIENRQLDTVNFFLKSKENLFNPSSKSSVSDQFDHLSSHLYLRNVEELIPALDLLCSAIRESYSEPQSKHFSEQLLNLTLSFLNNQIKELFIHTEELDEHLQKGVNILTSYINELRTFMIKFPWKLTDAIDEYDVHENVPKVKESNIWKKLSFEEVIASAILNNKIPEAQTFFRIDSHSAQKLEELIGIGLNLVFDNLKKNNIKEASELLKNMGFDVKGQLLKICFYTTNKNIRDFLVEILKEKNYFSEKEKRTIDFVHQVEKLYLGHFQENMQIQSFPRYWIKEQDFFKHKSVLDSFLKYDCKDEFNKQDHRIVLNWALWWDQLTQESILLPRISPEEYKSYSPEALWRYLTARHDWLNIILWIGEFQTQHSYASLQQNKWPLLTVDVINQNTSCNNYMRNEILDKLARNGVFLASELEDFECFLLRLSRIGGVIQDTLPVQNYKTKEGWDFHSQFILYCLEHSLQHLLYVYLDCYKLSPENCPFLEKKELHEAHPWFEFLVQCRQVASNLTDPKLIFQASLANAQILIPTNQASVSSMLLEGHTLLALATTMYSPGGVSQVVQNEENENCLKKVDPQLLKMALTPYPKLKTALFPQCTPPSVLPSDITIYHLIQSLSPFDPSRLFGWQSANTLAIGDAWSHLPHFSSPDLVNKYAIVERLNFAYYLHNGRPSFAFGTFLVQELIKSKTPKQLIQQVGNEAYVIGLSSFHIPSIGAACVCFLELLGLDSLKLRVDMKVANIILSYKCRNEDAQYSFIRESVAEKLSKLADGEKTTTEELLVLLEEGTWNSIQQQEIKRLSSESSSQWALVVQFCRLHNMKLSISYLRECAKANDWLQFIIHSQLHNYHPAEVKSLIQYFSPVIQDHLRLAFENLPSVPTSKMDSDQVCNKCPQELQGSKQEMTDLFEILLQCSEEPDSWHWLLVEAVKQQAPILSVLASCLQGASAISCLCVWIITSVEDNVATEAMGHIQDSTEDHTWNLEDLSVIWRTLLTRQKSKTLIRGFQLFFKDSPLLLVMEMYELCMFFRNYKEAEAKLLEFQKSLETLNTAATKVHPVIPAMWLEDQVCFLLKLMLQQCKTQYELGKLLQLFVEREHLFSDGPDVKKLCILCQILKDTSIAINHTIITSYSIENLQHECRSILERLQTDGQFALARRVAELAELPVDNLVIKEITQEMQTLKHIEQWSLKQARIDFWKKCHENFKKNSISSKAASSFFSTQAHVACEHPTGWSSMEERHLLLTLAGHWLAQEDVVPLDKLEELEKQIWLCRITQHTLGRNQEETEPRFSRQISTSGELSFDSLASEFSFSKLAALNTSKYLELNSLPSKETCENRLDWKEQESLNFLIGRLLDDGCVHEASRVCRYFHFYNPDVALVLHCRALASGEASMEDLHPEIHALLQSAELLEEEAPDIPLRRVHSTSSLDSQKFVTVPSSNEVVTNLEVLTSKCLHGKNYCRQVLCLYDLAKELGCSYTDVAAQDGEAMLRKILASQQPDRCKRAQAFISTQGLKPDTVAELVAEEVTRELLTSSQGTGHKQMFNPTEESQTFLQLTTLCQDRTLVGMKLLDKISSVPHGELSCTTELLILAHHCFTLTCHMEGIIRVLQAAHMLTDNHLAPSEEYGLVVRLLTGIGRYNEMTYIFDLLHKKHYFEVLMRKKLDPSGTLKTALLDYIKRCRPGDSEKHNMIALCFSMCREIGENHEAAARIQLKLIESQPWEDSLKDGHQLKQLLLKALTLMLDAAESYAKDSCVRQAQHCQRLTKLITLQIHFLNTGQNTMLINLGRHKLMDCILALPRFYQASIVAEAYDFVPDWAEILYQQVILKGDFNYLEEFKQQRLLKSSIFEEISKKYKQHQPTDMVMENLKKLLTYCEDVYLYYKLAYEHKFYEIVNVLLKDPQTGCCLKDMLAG
# UniProt P52630: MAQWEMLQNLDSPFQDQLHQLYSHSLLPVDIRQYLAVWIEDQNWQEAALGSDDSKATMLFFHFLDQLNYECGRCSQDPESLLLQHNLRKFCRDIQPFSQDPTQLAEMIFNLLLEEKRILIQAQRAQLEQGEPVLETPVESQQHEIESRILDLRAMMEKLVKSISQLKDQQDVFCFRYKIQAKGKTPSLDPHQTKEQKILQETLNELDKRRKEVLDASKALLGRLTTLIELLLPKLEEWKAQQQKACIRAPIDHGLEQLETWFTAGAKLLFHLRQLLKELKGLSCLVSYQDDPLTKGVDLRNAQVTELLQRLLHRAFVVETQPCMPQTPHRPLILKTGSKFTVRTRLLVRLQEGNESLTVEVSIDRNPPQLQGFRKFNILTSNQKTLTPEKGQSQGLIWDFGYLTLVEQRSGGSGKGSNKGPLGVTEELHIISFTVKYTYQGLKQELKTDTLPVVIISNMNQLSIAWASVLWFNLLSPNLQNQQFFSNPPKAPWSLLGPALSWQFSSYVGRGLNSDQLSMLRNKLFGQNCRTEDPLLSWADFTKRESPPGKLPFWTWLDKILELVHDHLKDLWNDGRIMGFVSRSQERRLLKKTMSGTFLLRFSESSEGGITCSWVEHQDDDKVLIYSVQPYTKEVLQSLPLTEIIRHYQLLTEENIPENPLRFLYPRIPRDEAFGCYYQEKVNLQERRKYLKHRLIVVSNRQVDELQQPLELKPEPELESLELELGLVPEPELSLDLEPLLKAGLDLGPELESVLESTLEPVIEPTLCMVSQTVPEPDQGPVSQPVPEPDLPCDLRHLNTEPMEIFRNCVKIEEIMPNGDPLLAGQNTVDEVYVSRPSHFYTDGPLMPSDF
# UniProt O15020, whole entry, looked up: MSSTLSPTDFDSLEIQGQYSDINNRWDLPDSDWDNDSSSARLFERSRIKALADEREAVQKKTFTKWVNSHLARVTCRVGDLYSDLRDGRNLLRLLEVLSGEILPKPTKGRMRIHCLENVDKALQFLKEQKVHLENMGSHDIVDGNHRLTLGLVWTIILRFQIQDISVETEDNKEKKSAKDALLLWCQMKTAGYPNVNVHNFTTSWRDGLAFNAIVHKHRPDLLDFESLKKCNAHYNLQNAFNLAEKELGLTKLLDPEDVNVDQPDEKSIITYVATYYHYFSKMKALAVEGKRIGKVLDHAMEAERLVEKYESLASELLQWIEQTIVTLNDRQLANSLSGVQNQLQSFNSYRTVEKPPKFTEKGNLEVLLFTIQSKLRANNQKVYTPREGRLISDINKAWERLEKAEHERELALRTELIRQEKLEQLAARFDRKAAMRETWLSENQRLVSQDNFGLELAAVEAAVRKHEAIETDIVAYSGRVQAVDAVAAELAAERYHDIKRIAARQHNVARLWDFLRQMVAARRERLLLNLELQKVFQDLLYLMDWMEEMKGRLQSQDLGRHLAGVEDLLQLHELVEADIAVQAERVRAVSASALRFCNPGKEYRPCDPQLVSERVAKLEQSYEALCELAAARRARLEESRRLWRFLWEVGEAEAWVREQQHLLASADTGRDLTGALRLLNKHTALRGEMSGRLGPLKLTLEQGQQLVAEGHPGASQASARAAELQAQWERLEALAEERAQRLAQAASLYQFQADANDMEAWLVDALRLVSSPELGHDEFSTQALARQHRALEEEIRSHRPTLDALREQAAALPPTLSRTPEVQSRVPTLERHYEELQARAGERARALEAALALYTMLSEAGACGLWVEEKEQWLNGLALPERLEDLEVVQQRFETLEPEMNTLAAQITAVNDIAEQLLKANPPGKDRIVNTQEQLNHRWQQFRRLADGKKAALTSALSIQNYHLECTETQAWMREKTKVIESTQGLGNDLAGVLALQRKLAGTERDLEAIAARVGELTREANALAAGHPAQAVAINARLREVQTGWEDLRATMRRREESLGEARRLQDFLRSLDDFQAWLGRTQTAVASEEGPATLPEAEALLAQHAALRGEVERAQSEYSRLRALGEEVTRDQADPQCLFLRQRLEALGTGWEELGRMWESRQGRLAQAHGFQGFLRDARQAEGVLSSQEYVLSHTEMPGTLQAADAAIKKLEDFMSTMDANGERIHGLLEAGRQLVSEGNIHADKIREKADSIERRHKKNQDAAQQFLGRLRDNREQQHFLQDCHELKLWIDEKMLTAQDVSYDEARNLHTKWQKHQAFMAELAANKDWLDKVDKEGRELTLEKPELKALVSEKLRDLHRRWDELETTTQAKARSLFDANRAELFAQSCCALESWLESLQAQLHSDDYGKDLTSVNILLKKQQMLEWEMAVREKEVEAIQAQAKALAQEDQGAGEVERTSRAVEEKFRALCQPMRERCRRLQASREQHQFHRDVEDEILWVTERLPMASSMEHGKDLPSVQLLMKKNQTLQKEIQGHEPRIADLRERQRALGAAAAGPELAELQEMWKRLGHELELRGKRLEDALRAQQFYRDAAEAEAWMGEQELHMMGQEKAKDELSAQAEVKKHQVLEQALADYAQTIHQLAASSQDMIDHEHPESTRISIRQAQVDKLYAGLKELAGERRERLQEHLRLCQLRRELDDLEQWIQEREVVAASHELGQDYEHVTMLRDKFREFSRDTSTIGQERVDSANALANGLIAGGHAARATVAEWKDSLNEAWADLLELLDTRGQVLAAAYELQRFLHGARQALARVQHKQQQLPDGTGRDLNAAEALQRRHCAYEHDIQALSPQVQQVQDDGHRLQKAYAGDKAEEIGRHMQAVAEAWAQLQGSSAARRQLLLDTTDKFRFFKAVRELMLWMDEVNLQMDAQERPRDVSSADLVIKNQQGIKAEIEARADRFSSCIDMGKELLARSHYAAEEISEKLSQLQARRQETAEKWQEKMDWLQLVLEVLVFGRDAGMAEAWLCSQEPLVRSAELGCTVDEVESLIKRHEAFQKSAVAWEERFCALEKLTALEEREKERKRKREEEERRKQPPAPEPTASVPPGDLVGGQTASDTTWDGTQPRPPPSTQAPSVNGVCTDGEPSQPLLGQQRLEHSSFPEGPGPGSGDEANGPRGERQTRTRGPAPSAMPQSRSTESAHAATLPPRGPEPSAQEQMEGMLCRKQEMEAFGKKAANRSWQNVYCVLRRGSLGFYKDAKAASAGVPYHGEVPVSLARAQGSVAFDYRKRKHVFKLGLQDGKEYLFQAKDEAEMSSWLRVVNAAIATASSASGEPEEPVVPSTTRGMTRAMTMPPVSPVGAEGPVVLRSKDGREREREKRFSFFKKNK
# UniProt P30626: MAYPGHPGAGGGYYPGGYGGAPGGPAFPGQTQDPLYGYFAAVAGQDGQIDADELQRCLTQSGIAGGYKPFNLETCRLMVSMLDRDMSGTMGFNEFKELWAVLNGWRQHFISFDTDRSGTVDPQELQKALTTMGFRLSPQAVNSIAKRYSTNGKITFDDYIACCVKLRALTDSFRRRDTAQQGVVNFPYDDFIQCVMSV
# UniProt P15907: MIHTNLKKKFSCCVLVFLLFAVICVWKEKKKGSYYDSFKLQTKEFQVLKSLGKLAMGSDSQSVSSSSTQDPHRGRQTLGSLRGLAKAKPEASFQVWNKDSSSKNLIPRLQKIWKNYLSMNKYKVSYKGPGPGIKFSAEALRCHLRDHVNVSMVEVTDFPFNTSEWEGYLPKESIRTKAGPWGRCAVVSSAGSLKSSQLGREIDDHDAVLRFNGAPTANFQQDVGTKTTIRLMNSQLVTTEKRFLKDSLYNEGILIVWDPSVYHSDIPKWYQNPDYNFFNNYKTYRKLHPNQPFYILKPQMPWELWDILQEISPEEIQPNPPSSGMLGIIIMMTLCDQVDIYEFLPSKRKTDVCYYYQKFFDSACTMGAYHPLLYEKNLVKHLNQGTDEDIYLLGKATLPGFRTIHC
# UniProt P19623: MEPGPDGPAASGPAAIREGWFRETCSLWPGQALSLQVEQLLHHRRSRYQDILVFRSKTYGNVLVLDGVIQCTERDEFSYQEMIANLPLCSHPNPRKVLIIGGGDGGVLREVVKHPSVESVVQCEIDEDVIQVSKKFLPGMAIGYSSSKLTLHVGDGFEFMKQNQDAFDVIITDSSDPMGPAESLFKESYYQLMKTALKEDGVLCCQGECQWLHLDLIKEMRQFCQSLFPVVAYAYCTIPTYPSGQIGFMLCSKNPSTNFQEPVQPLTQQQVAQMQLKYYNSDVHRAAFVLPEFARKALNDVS
# The list shows a part of the results.
# How the values were obtained:
# Test in all cases: log2 fold change, soluble protein after heating vs DMSO (PISA); higher = thermal stabilisation; K562 lysate, 10 uM; active = over 0.2 and 3.5 SD of the protein, either way, in both replicates (recomputed)
# [1] = compound: C#Cc1cccc(Nc2ncnc3cc(OCCOC)c(OCCOC)cc23)c1 [erlotinib]
# How it was run: (§1)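 Values give the log-two fold change in thermal stability against solvent controls, from duplicates. Crude K562 extract at 1 mg/mL protein, made by dounce homogenisation in PBS pH 7.4 with 1 mM MgCl2, was treated with 10 μM compound for 30 min. After 3 min heating across 48°C-58°C, aliquots were pooled, adjusted to 0.5% NP-40 at 4°C and centrifuged at 21,000xg for 90 min. The supernatant was measured by TMTpro 16plex LC-MS/MS with channel sums equalised.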
# [2] = compound: C/C(=N\NC(=O)C1=CC(=CC=C1)S(=O)(=O)N2CCOCC2)/C3=C(C=CC(=C3)Cl)O
# How it was run: as §1
# [3] = compound: C1=CC(=CC=C1C2=NC3=C(N2)C=C(C=C3)C(=O)N)OC4=CC=C(C=C4)Cl
# How it was run: as §1
# [4] = compound: C1=CC2=C(C=CC(=C2)/C=C\3/C(=O)NC(=NCC4=CC=CS4)S3)N=C1
# How it was run: as §1
# [5] = compound: C1=CC2=NC=CN=C2C=C1/C=C/3\C(=O)NC(=O)S3
# How it was run: as §1
# [6] = compound: C1=CC=C(C=C1)C2=NC(=C(N2)C3=CC=NC=C3)C4=CC(=C(C=C4)Cl)O
# How it was run: as §1
# [7] = compound: C1=CC=C2C(=C1)C3=NNC4=CC=CC(=C43)C2=O
# How it was run: as §1
# [8] = compound: C1CCN(C1)C(=O)NC2=CC=CC(=C2)NC3=NC=C(C(=N3)NCCC4=CN=CN4)Br
# How it was run: as §1
# [9] = compound: C1CN(CCC1(CC2=CC=C(C=C2)Cl)N)C3=NC=NC4=C3C=CN4
# How it was run: as §1
# [10] = compound: C1COCCN1CCN2C3=CC=CC=C3N=C2NC(=O)C4=CC(=CC=C4)[N+](=O)[O-] [IRAK-1-4 Inhibitor I]
# How it was run: as §1
Target,log2 fold change [1],log2 fold change [2],log2 fold change [3],log2 fold change [4],log2 fold change [5],log2 fold change [6],log2 fold change [7],log2 fold change [8],log2 fold change [9],log2 fold change [10]
SPATA5 (UniProt Q8NB90),inactive: 0.04,inactive: 0.025,inactive: -0.006,inactive: 0.025,inactive: -0.042,inactive: 0.042,inactive: 0.015,inactive: 0.017,inactive: 0.017,inactive: 0.016
SRRM1 (UniProt Q8IYB3),inactive: 0.015,inactive: -0.053,inactive: -0.058,inactive: 0.061,inactive: -0.062,inactive: 0.002,inactive: 0.036,inactive: 0.04,inactive: -0.01,inactive: -0.01
SPG11 (UniProt Q96JI7),inactive: 0.05,inactive: 0.033,inactive: 0.005,inactive: -0.012,inactive: 0.333,inactive: 0.076,inactive: 0.025,inactive: -0.016,inactive: 0.019,inactive: 0.023
STAT2 (UniProt P52630),inactive: -0.009,inactive: 0.033,inactive: -0.102,inactive: -0.01,inactive: 0.034,inactive: 0.003,inactive: -0.032,inactive: 0.002,inactive: 0.018,inactive: -0.018
SRP19 (UniProt P09132),inactive: 0.011,inactive: -0.298,inactive: -0.007,inactive: -0.074,inactive: -0.012,inactive: 0.008,inactive: 0.077,inactive: -0.008,inactive: 0.022,inactive: 0.027
STAT1 (UniProt P42224),inactive: 0.022,inactive: 0.018,inactive: -0.014,inactive: -0.009,inactive: 0.02,inactive: 0.022,inactive: -0.046,inactive: -0.014,inactive: 0.002,inactive: 0.004
ST13 (UniProt P50502),inactive: -0.015,inactive: -0.013,inactive: -0.027,inactive: -0.017,inactive: 0.004,inactive: 0.021,inactive: 0.025,inactive: 0.006,inactive: 0.004,inactive: 0.001
SRBD1 (UniProt Q8N5C6),inactive: 0.048,inactive: 0.263,inactive: 0.072,inactive: -0.032,inactive: -0.017,inactive: 0.016,inactive: -0.217,inactive: -0.014,inactive: -0.023,inactive: -0.016
SPTBN2 (UniProt O15020),inactive: 0.038,inactive: 0.083,inactive: -0.042,inactive: 0.023,inactive: -0.006,inactive: 0.011,inactive: 0.024,inactive: -0.016,inactive: -0.023,inactive: -0.058
SSB (UniProt E7ERC4),inactive: -0.03,inactive: 0.071,inactive: -0.063,inactive: 0,inactive: 0.02,inactive: 0.015,inactive: -0.142,inactive: 0.089,inactive: 0.01,inactive: -0.043
SRI (UniProt P30626),inactive: 0.017,inactive: -0.039,inactive: -0.047,inactive: 0.05,inactive: -0.009,inactive: -0.021,inactive: -0.046,inactive: -0.029,inactive: 0.096,inactive: -0.057
STAMBP (UniProt O95630),inactive: -0.016,inactive: -0.005,inactive: 0.001,inactive: 0.012,inactive: -0.007,inactive: -0.014,inactive: 0.011,inactive: 0.019,inactive: -0.013,inactive: -0.002
SRSF9 (UniProt Q13242),inactive: 0.027,active: 0.263,inactive: 0.007,inactive: 0.077,inactive: 0.052,inactive: -0.01,inactive: 0.097,inactive: 0.072,inactive: 0.007,inactive: 0.012
STARD7 (UniProt Q9NQZ5),inactive: -0.006,inactive: 0.084,inactive: 0.028,inactive: -0.038,inactive: -0.042,inactive: 0.012,inactive: -0.024,inactive: -0.029,inactive: 0.011,inactive: -0.028
SRFBP1 (UniProt Q8NEF9),inactive: -0.033,inactive: 0.031,inactive: 0.07,inactive: -0.001,inactive: 0.015,inactive: 0.019,inactive: 0.036,inactive: 0.008,inactive: -0.005,inactive: 0.049
SPTAN1 (UniProt Q13813),inactive: -0.014,inactive: 0.019,inactive: 0.001,inactive: -0.002,inactive: -0.005,inactive: 0.009,inactive: -0.012,inactive: -0.013,inactive: -0.006,inactive: -0.003
ST6GAL1 (UniProt P15907),inactive: -0.052,inactive: -0.039,inactive: -0.072,inactive: 0.054,inactive: -0.004,inactive: 0.014,inactive: -0.014,inactive: -0.041,inactive: 0.032,inactive: 0.008
SPHK1 isoform 2 (UniProt Q9NYA1),inactive: -0.055,inactive: -0.462,inactive: -0.059,inactive: 0.038,inactive: 0.034,inactive: -0.097,inactive: -0.066,inactive: 0.016,inactive: 0.038,inactive: 0.018
SRSF3 (UniProt P84103),inactive: -0.006,inactive: 0.038,inactive: -0.063,inactive: -0.026,inactive: 0.005,inactive: 0.022,inactive: 0.037,inactive: 0.02,inactive: -0.042,inactive: 0.003
SQLE (UniProt Q14534),inactive: -0.025,inactive: 0.056,inactive: 0.019,inactive: -0.03,inactive: -0.028,inactive: 0.007,inactive: 0.074,inactive: -0.019,inactive: -0.084,inactive: 0.023
SPINDOC (UniProt Q9BUA3),inactive: -0.011,inactive: -0.171,inactive: 0.022,inactive: -0.153,inactive: -0.057,inactive: 0.062,inactive: -0.046,inactive: -0.102,inactive: -0.063,inactive: 0.033
SPDL1 (UniProt Q96EA4),inactive: -0.01,inactive: -0.152,inactive: 0.026,inactive: 0.015,inactive: -0.01,inactive: -0.006,inactive: -0.014,inactive: -0.041,inactive: -0.033,inactive: 0.013
STAM2 (UniProt O75886),inactive: -0.027,inactive: 0.17,inactive: 0.002,inactive: -0.013,inactive: -0.002,inactive: 0.045,inactive: 0.033,inactive: -0.028,inactive: 0.006,inactive: -0.044
SRXN1 (UniProt Q9BYN0),inactive: 0.005,inactive: -0.013,inactive: 0.057,inactive: -0.242,inactive: -0.028,inactive: -0.025,inactive: -0.074,inactive: -0.094,inactive: 0.071,inactive: -0.01
SRSF1 (UniProt Q07955),inactive: -0.011,inactive: 0.006,inactive: -0.033,inactive: -0.004,inactive: 0.004,inactive: -0.003,inactive: -0.019,inactive: 0.027,inactive: -0.001,inactive: -0.003
SRGN (UniProt P10124),inactive: -0.034,inactive: 0.023,inactive: 0.051,inactive: -0.019,inactive: 0.05,inactive: 0.051,inactive: -0.069,inactive: 0.065,inactive: -0.139,inactive: 0.013
ST3GAL2 (UniProt Q16842),inactive: -0.06,inactive: -0.017,inactive: -0.061,inactive: 0.044,inactive: -0.14,inactive: -0.06,inactive: -0.037,inactive: -0.018,inactive: 0.022,inactive: 0.066
SSR3 isoform 2 (UniProt Q9UNL2),inactive: -0.048,inactive: 0.008,inactive: -0.057,inactive: 0.027,inactive: 0.021,inactive: -0.002,inactive: 0.089,inactive: -0.002,inactive: -0.018,inactive: -0.163
SRM (UniProt P19623),inactive: -0.006,inactive: 0.039,inactive: 0.017,inactive: -0.001,inactive: 0.014,inactive: 0.004,inactive: -0.003,inactive: 0.017,inactive: 0.027,inactive: 0.007

# Quoted at random: 2 entries already listed, in no set order.
Target,log2 fold change [1],log2 fold change [2],log2 fold change [3],log2 fold change [4],log2 fold change [5],log2 fold change [6],log2 fold change [7],log2 fold change [8],log2 fold change [9],log2 fold change [10]
STAMBP (UniProt O95630),inactive: -0.016,inactive: -0.005,inactive: 0.001,inactive: 0.012,inactive: -0.007,inactive: -0.014,inactive: 0.011,inactive: 0.019,inactive: -0.013,inactive: -0.002
SSR3 isoform 2 (UniProt Q9UNL2),inactive: -0.048,inactive: 0.008,inactive: -0.057,inactive: 0.027,inactive: 0.021,inactive: -0.002,inactive: 0.089,inactive: -0.002,inactive: -0.018,inactive: -0.163
